These are yes or no findings as the source states them, for the method shown. Some results given as binding are weak or reduced against the parent protein; the word gives no strength.
What was measured:
[1] = biological target: human cadherin-17 (CDH17), endogenously expressed on human cancer cell lines (LS513, SNU-C1, PaTu8988s, HPAF-II) (human) (UniProt Q12864); assay: indirect flow cytometry (iQue) on LS513 cells (CDH17+), anti-His secondary antibody
[2] = biological target: human cadherin-17 (CDH17), endogenously expressed on human cancer cell lines (LS513, SNU-C1, PaTu8988s, HPAF-II) (human) (UniProt Q12864); assay: indirect flow cytometry (iQue), anti-His secondary antibody

Sequences of proteins named here, by UniProt entry; tags and fusion partners are left off. A change or cut given only in a name is not applied to a line headed by its entry.
UniProt Q12864: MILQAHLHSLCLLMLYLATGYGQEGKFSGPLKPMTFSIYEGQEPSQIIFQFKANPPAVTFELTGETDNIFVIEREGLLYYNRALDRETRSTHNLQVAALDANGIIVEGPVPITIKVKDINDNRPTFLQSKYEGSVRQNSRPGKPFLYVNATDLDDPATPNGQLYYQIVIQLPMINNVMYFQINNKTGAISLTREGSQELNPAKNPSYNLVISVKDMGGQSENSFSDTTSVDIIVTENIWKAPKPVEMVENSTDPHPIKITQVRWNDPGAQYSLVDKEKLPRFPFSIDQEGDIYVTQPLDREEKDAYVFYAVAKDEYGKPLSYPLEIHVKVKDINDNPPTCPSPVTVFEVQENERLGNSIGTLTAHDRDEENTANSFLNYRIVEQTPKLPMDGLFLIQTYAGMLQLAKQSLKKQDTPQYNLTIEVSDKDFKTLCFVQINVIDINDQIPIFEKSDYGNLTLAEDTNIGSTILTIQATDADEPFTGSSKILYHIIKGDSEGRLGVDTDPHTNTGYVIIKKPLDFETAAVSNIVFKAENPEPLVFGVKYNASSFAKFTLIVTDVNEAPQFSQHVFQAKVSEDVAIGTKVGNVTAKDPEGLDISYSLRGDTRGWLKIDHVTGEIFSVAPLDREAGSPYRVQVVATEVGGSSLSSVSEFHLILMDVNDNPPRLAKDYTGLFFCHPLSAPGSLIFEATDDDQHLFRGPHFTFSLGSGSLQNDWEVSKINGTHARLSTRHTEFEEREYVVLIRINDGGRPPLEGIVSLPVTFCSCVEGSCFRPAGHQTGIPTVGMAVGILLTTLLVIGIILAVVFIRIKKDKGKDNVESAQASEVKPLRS

B1: 07-0653-h43scFv anti-CDH17 scFv (scFv)
scFv: DIQLTQSPSSLSASVGDRVTITCRATSSLSYIHWYQQKPGKAPKPLIYEISKLASGVPSRFSGSGSGTDYTLTISSLQPEDFATYYCQQWNYPFTFGQGTKLEIKGGGGSGGGGSGGGGSQVQLVQSGAEVKKPGASVKVSCKASGYTFTDYYMNWVRQAPGQGLEWMGVIYPYSGGIGYAQKFQGRVTMTVDKSTSTAYMELSSLRSEDTAVYYCARGRGDYFGLFDFWGQGTTVTVSSHHHHHH
B1 was tested, and the binding [1] was “binds” and the binding [2] was “binds”.

Reference: US20250051437A1
